The list shows only some results of the screen, not a fair sample: it covers a few groups of compounds. Other doses and runs of a compound may be missing. T/C gives the treated animals as a percentage of the vehicle group. Where survival is the endpoint, the PubChem record calls one and a half times the control and up active, and a quarter to a half above the control has no call in these data; cut-offs in other NCI protocols can differ. Some entries show no survivor count and are marked so; the dose need not have been tolerated. Schedules are NCI's codes, taken here to give the interval after Q, in days (D) or hours (H), and the number of doses after X. Signs of the kind (2×) count equal records among those shown. Some entries hold several experiments; their values stand side by side, smallest first.
Tested on: BDF1 mice, P388 leukemia (terephthalanilide-resistant), survival T/C
Assay: NCI In Vivo Anticancer Drug Screen. Data for tumor model P388 Leukemia resistant to A Terephthalanilide; NSC 38280 (intraperitoneal) in B6D2F1 (BDF1) mice
Conditions: T/C endpoint: median survival time, schedule: Q01DX010 (ip), vehicle: saline, higher T/C = longer survival
Method: The antitumor activity of compounds was measured in mice bearing transplantable tumors. Survival or tumor size were measured and the results are expressed as the measurement made in the treated group (T) divided by the measurement made in the vehicle treated control group (C). The tumor model used in this assay is P388 Leukemia resistant to A Terephthalanilide; NSC 38280 (intraperitoneal) in B6D2F1 (BDF1) mice

`CN(CCCl)CCCl` was tested, and the T/C (dose: 0.13 mg/kg/injection) was 118 [survivor count not shown] and 137 % of control [survivor count not shown], the T/C (dose: 0.25 mg/kg/injection) was 131 [survivor count not shown] and 137 % of control [survivor count not shown] and the T/C (dose: 0.5 mg/kg/injection) was 137 % of control [survivor count not shown] (2×). The T/C (dose: 1.0 mg/kg/injection) was 87 % of control [survivor count not shown].

From PubChem BioAssay AID338 (DTP/NCI, 2004)
